Experimental data taken from US20220402925A1, “COMPOUNDS AND METHODS FOR THE TREATMENT OF CYSTIC FIBROSIS” (Flatley Discovery Lab, LLC, priority 2019, published 2022).
At least one compound was matched to its structure with a doubt left.

By UniProt entry, the sequences of proteins in these tests, tags left out. Chains listed by the source or under a name are the forms on record and can include a tag or linker.
UniProt P13569, with tags, fused parts or gaps DEL508-508: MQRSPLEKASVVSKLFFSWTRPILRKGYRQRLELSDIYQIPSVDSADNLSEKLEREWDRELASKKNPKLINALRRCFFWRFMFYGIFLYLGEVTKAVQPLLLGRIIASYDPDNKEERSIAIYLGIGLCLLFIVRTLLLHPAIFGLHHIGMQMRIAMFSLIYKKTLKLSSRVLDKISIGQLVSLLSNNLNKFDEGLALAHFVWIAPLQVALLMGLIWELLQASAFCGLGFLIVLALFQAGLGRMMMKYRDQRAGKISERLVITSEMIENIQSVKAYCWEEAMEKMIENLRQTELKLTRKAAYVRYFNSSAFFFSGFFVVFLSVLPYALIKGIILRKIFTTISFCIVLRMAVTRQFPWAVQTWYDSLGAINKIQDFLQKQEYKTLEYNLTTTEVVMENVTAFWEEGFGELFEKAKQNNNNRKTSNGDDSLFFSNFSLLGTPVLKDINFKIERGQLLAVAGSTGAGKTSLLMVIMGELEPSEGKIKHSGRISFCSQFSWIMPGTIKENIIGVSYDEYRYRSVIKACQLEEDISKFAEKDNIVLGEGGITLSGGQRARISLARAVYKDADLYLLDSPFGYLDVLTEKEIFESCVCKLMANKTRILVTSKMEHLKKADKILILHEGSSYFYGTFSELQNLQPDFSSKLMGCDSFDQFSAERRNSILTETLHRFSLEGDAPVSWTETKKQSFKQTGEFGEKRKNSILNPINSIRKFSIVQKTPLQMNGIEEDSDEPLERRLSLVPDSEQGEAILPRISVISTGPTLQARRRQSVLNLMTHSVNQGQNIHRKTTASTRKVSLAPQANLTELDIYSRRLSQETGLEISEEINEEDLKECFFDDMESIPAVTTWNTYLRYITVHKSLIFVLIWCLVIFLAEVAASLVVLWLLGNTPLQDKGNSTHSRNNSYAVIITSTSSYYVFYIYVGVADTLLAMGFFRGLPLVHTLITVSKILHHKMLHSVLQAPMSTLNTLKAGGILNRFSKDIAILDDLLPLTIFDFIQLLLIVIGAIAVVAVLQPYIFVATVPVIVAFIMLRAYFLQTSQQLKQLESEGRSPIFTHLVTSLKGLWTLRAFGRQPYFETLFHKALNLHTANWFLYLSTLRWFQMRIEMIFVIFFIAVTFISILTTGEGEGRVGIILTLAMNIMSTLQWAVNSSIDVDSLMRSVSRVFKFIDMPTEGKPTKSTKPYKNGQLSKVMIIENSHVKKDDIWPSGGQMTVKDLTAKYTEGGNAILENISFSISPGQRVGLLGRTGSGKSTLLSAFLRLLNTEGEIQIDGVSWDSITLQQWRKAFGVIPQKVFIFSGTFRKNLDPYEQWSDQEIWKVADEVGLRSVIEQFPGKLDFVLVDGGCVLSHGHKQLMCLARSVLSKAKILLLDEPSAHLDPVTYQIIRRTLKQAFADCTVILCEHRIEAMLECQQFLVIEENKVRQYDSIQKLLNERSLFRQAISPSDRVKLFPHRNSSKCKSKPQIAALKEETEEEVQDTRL

Target: T1, F508del CFTR (Homo sapiens, UniProt P13569, DEL508-508)
T1 construct: Primary CF airway epithelial cells were obtained from the UNC Cystic Fibrosis Tissue Procurement and Cell Culture Core; host or cells: primary CF airway epithelial cells
Assay: Equivalent current assay in primary CF airway epithelial cells (Corrector Activity, NAUC normalized to 3 μM VX809)
Format: cell-based
Settings: NAUC as % of positive control (VX-809)
Procedure: Primary CF airway epithelial cells were obtained from the UNC Cystic Fibrosis Tissue Procurement and Cell Culture Core. The cells are grown at 37° C. in a Heracell 150i incubator using growth media (BEGM, Fischer). Cells were then transferred to differentiation media (airway liquid interface media (ALI) media; Lechner J F and LaVeck M A, J. Tissue Culture Methods 1985, 9: 43-48) for a minimum of 4 weeks on coated Costar transwells. Two days before the assay the mucus on the apical surface of the cells was aspirated after incubating with 200 μL of differentiation media for at least thirty (30) minutes. One day before the assay test compounds were added to the basolateral surface of the cells at various test concentrations dissolved in DMSO. Duplicate wells were prepared giving a n=4 or n=6 protocol.
Cells were treated for 24 hours with various combinations and concentrations of the test articles, reference standard (3 μM VX809, positive control). Compounds stock solutions were prepared in DMSO and diluted 1/1000 into ALI media to their final assay concentration. Cells were treated with combination solutions (2 mL of each dilution) and incubated at 37° C. for 24 h.
For the equivalent current assay, cells on six Transwell (24-well) plates were treated. Each Transwell plate was filled with 200 μl of HBS on the apical surface and 2 ml on the basolateral surface. Plates were placed horizontally in a heated mount at 37° C. and equilibrated for 30 minutes. Resting current was measured for 15 min and then blocked by the apical addition of 5 μM benzamil. After 20 min, CFTR activator (10 μM forskolin) and potentiator (either 1 μM VX-770 or 3 μM FDL176) were added to both the apical and basolateral side to stimulate CFTR. An increase in chloride current is seen as an upward deflection of the trace. After another 60 min, CFTR-172 (a CFTR inhibitor, 20 μM) and/or bumetanide (20 uM) was added to block CFTR mediated chloride current.
The raw data, voltage vs. time and resistance vs. time for the equivalent current assay (sampling interval: 6 minutes) were transferred to Excel (Microsoft Office Professional, version 14.0.7106.5003) for analysis. CFTR specific current was computed from I=V/R (Ohms Law), the average amplitude of the increase in current elicited upon addition forskolin and ending upon addition of the CFTR channel specific blocker CFTR-172. […] The average current measured in vehicle (0.1% DMSO) treated cells, IV, was subtracted from the current for the test article, ITA, or from the corrector reference standard VX809 (3 uM, ISTD). […]
A second endpoint, for the equivalent current assay, evaluated was NAUC, the normalized area under the curve (AUC) measuring the response after addition of forskolin and potentiator to the time point right before the addition of the CFTR inhibitor. […]

Structure (SMILES)	Corr Activity (NAUC)
CC(C)(C)NC(=O)c1cc2c(=O)n(CC(=O)N3CCCc4c3ccc3c4OC(F)(F)O3)nc(-c3cccc(F)c3)c2o1 [Example 127]	++ (NAUC 70-40% of positive control)
CCN(C(=O)Cn1nc(-c2cccc(C#N)c2)c2c(cnn2C)c1=O)c1ccc2c(c1)OC(F)(F)O2 [Example 215, 2-(7-(3-cyanophenyl)-1-methyl-4-oxo-1,4-dihydro-5H-pyrazolo[3,4-d]pyridazin-5-yl)-N-(2,2-difluorobenzo[d][1,3]dioxol-5-yl)-N-ethylacetamide]	++ (NAUC 70-40% of positive control)
CCc1cc2c(cc1N(C)C(=O)Cn1nc(-c3cccc(C#N)c3)c3occc3c1=O)OC(F)(F)O2 [Example 46]	++ (NAUC 70-40% of positive control)
N#Cc1cccc(-c2nn(CC(=O)N3CC4(CC4)c4cc5c(cc43)OC(F)(F)O5)c(=O)c3ccoc23)c1 [Example 57]	+ (NAUC<40% of positive control)
